Experimental data published in patent US10294271B1, “Compound, composition, and method for detecting caspase activity and/or apoptosis” (Vanderbilt University, priority 2013, dated 2019).
At least one structure is not confirmed: it was looked up by name or label, or the drawing left a doubt.

Target: T1, caspase-3 (Homo sapiens, UniProt P42574)
T1 sequence (P42574 29-175 limits assumed): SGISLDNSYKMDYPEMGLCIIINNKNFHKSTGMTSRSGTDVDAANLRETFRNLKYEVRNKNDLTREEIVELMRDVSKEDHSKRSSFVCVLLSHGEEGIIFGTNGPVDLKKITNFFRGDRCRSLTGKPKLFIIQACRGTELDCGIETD
T1 sequence (P42574 176-277 limits assumed): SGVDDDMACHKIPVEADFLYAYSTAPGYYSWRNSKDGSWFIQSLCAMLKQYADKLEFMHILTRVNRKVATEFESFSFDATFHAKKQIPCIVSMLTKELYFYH
Test: Biochemical caspase-3 inhibition assay (Caspase-Glo 3/7)
Design: purchased Sigma C1224-10UG
Settings: mean, n≥3; 100 nM enzyme, 30 min, 37° C.

An IC50 of roughly 225 nM was found for `COC(=O)C[C@H](NC(=O)[C@H](C)NC(=O)[C@@H](NC(=O)c1ccc(F)cc1)C(C)C)C(=O)CF` [[^19F]FB-VAD-FMK] in this work.
